No constants are given. Whether binding was seen depends on the method and setting. In cells and extracts the contact can be indirect. Some results given as binding are weak or reduced against the parent protein; the word gives no strength.
Molecular target: eYFP tagged PAR2 (PAR2-eYFP), activated by trypsin added to the cells (human) (UniProt P55085)
Experiment: FRET or BRET

Chains of the proteins cited; added tags and fusions are not shown. Lines headed by an entry give the natural chain unless they say otherwise; changes in a name come on top. A line that says so, or that is headed by a name, gives the form on record, which may keep a tag or linker. Residues count along the entry.
UniProt P55085, residues 37-397: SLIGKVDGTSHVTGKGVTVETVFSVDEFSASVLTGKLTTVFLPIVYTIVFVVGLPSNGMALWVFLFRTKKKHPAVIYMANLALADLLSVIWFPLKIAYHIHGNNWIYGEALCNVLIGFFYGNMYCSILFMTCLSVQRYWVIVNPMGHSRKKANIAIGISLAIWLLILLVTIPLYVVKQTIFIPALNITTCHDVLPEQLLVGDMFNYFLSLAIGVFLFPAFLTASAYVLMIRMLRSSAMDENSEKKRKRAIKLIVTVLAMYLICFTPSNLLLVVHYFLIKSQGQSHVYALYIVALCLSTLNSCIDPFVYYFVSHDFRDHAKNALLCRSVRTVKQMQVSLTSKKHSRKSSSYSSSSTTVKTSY
renilla luciferase (rluc8) tagged GαoB (P09471-2, form named): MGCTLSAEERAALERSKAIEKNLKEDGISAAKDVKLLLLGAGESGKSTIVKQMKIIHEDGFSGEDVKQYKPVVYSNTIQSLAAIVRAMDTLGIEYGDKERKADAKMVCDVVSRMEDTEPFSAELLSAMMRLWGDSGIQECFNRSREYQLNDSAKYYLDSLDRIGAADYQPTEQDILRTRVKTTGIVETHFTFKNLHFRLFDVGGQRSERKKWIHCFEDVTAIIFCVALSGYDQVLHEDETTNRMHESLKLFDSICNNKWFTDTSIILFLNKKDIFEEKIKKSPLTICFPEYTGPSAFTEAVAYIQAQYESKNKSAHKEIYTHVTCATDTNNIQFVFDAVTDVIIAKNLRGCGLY
UniProt P49407: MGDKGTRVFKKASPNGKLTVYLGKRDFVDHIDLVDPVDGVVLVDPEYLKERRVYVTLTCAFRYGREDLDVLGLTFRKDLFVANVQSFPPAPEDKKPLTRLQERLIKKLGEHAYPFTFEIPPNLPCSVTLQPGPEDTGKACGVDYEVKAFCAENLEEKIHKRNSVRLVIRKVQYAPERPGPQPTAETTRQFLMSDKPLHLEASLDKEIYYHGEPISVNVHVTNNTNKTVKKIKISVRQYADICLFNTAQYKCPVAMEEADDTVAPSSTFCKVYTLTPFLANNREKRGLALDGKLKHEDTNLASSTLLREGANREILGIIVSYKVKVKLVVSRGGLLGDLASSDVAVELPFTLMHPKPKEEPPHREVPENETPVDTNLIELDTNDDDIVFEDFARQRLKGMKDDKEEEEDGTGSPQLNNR
UniProt P32121: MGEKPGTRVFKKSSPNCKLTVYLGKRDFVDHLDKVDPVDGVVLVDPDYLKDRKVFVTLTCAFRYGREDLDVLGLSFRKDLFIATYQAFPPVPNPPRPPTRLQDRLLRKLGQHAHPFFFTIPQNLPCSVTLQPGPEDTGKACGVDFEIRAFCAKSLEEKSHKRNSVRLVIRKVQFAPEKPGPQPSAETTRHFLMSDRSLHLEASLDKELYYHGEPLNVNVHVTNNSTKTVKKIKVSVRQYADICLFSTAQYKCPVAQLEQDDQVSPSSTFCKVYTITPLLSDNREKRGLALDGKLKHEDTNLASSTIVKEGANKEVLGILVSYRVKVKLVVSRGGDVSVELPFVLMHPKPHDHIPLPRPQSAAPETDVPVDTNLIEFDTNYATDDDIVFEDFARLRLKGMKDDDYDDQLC

**Q.** “renilla luciferase (rluc8) tagged GαoB (from UniProt P09471-2 1-354)” was tested. Which binding did it give?
**A.** The binding was “binds”.

**Q.** “rluc tagged β-arrestin-1 (from UniProt P49407 1-418)” was tested. Which binding did it give?
**A.** The binding was “binds”.

**Q.** How did the binding turn out when “rluc tagged β-arrestin-2 (from UniProt P32121 1-409)” was run?
**A.** The binding was “binds”.
